Binding data for one substance are collected here from publication PMC7139957.

The chains behind the UniProt entries cited, without tags or fusion partners. Where a name states a change or a piece, a line headed by the entry shows the natural chain unless it says otherwise.
UniProt P05556: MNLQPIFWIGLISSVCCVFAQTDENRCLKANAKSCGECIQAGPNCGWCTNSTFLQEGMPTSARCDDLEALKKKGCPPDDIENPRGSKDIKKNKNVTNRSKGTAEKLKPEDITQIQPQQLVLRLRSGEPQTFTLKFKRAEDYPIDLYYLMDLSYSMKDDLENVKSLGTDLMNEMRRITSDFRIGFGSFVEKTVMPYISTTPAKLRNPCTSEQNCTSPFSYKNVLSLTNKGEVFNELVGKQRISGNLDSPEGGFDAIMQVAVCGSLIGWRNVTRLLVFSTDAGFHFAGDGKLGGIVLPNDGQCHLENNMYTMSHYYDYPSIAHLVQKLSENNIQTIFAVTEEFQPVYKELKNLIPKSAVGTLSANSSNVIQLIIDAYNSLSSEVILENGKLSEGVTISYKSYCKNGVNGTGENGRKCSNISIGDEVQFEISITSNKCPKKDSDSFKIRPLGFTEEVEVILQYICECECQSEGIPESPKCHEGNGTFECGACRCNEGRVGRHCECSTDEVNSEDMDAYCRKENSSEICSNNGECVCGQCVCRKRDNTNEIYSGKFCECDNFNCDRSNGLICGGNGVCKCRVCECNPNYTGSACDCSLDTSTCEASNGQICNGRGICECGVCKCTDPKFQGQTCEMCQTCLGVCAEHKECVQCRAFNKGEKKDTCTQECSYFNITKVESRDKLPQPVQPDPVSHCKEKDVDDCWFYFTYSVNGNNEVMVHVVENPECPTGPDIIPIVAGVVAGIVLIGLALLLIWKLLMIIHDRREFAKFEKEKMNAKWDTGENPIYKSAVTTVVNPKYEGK

In the assay the target is T1, trapping Trx1 C35S mutant (thioredoxin-1 with Cys-X-X-Ser active site) (UniProt P10599).
T1 sequence: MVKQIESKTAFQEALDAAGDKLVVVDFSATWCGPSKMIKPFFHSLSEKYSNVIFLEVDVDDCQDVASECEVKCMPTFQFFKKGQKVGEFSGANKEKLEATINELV
The assay can be described thus: pull-down; intermediate trapping: His-tagged Trx1 C35S immobilized and reduced with 10 mM DTT on a His-Trap column; 10-20 mg protein of lysate of α7wt-transfected HT1080 cells loaded; eluted with 10 mM DTT; immunoblot with integrin β1 antiserum; only the target purified. On the technique in general: Immunoblotting shows a protein as a band on a membrane.

No constants are given. Whether binding was seen depends on the method and setting. In cells and extracts the contact can be indirect. Some entries that bind do so weakly or less than the wild type.

On to “integrin β1 subunit (from UniProt P05556 21-798) (receptor)”, for which the binding entry is “binds”.
